Experimental data: paper PMC5431093, “A HAND to TBX5 Explains the Link Between Thalidomide and Cardiac Diseases” (Scientific Reports, 2017)
No constants are given. Whether binding was seen depends on the method and setting. For some of these results: In cells and extracts the contact can be indirect. Some results given as binding are weak or reduced against the parent protein; the word gives no strength. For some of these results: Tags and fused reporters may be left off the sequences shown.

Amino acid sequences for entries named in this document (tags omitted).
UniProt P46152: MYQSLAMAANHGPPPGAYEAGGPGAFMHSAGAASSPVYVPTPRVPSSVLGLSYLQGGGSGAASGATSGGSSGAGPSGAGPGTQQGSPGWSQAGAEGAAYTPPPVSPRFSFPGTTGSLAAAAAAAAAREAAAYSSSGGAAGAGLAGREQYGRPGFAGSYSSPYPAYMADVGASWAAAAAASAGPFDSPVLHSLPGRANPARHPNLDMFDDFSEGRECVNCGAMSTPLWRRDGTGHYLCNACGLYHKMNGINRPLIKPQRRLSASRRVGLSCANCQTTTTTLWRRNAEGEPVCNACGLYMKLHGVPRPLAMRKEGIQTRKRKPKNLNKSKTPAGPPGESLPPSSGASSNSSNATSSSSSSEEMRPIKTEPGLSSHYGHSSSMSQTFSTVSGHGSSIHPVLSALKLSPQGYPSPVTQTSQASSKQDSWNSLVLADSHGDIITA

T1: HA-tagged TBX5 (murine Tbx5 isoform A) (mouse, UniProt P70326 1-518)
T1 sequence (looked up): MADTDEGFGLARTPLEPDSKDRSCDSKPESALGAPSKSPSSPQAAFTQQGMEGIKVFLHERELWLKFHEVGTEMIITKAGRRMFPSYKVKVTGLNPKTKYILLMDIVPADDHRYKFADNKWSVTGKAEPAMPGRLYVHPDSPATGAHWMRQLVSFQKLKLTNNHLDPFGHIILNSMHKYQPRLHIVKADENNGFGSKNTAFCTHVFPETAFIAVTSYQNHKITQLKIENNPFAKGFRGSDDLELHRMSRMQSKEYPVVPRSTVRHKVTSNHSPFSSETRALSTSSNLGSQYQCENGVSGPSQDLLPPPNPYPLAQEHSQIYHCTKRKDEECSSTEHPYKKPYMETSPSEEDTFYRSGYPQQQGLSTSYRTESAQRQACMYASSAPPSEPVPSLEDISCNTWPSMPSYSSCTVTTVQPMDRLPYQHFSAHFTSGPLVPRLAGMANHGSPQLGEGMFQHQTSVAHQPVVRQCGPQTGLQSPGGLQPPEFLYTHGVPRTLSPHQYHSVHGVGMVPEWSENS

T2: E47/Pan protein (UniProt P15923)
T2 sequence: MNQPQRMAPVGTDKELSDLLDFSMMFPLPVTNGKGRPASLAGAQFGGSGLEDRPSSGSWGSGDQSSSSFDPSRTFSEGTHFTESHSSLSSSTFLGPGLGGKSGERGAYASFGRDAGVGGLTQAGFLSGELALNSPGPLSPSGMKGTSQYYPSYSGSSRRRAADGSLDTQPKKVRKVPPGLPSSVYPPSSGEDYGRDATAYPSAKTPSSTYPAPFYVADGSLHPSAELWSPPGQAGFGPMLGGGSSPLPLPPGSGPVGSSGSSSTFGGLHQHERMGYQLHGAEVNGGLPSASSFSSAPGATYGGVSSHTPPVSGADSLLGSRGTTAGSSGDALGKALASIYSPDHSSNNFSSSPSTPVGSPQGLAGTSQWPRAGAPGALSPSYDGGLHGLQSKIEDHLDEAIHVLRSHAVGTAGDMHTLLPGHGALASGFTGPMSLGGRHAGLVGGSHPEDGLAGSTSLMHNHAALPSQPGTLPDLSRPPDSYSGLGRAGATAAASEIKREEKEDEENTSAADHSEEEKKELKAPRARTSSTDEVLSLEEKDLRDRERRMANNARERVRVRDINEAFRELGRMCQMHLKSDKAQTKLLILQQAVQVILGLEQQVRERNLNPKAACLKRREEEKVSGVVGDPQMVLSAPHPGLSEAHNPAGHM

B1: Flag-tagged HAND2 wild type (natural protein, mouse, UniProt Q61039 1-217, looked up)
chain: MSLVGGFPHHPVVHHEGYPFAAAAAAAAAAAASRCSHEENPYFHGWLIGHPEMSPPDYSMALSYSPEYASGAAGLDHSHYGGVPPGAGPPGLGGPRPVKRRGTANRKERRRTQSINSAFAELRECIPNVPADTKLSKIKTLRLATSYIAYLMDLLAKDDQNGEAEAFKAEIKKTDVKEEKRKKELNEILKSTVSSNDKKTKGRTGWPQHVWALELKQ

What was measured:
[1] = target: T1, HA-tagged TBX5 (murine Tbx5 isoform A); experiment: co-IP; as a1 but the extracts incubated with thalidomide (4 uM by the legends; 200 mg by the methods)
[2] = target: T1, HA-tagged TBX5 (murine Tbx5 isoform A); experiment: co-IP; nuclear extracts of separately transfected HEK293 cells mixed (100 ug each), anti-HA on Protein A/G Dynabeads, 2 h, alone or with DMSO; blot with anti-Flag, re-blot with anti-HA
E47/Pan protein = target: T2, E47/Pan protein; experiment: native gel or EMSA; nuclear extracts of HEK293 cells with HAND2 (wild type or G202V) mixed with the same amount of E47/Pan extract, radiolabelled consensus HAND binding site probe; complex seen on DNA

Row | binding [1] | binding [2] | binding (E47/Pan protein) | Molecule
1 | binds | binds | – | Flag-tagged GATA4 (from UniProt P46152 1-440)
2 | – | binds | binds | B1
